Data taken from PubChem BioAssay AID504749, deposited by NCATS (2011).

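A panel of P. falciparum strains inside erythrocytes is exposed to compounds for three days, then a DNA-binding dye reports the amount of parasite DNA.
Each compound was titrated across a series from about 0.000037 to 29 µM.
The number is the fitted AC50, the concentration giving a half-maximal change in signal; a lower value means higher potency, whether the curve shows a decrease or an increase.
Calls follow the curve class and fit quality: every row here is inconclusive, covering signal-raising curves and weak, poorly fitted, partial or highest-dose-only inhibition curves.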

Values are in µM.
Every entry below has the call inconclusive.
Only part of the assay is shown, chiefly results filed as inconclusive.
A potency from a partial, single-point or poor curve is only a rough figure.

COc1cccc(N(C)C(=S)Oc2ccc3c(c2)CCCC3)n1 [CP297] gave Potency 13.46 µM (inhibitor, partial curve, poor fit). With COc1cccc(N(C)C(=S)Oc2ccc3c(c2)CCCC3)n1 [CP194] the assay gave Potency 3.013 µM (inhibitor, partial curve). With COc1cccc(N(C)C(=S)Oc2ccc3c(c2)CCCC3)n1 [CP201] the assay gave Potency 16.94 µM (inhibitor, partial curve, poor fit). With O=c1c2ccccc2[se]n1-c1ccccc1 [CP265] the assay gave Potency 17.78 µM (inhibitor, single point). O=c1c2ccccc2[se]n1-c1ccccc1 [CP335] read Potency 19.01 µM (inhibitor, single point). With O=c1c2ccccc2[se]n1-c1ccccc1 [PC26] the assay gave Potency 19.01 µM (inhibitor, single point). O=c1c2ccccc2[se]n1-c1ccccc1 [CP211] gave Potency 16.94 µM (inhibitor, single point).

For O=c1c2ccccc2[se]n1-c1ccccc1 [DIV17] the result was Potency 15.1 µM (inhibitor, single point). O=c1c2ccccc2[se]n1-c1ccccc1 [CP217] gave Potency 17.78 µM (inhibitor, single point). With O=c1c2ccccc2[se]n1-c1ccccc1 [CP286] the assay gave Potency 17.78 µM (inhibitor, single point). O=c1c2ccccc2[se]n1-c1ccccc1 [DFO2036] gave Potency 17.78 µM (inhibitor, single point). O=c1c2ccccc2[se]n1-c1ccccc1 [CP247] read Potency 10 µM (inhibitor, single point). For O=c1c2ccccc2[se]n1-c1ccccc1 [CP250] the result was Potency 17.78 µM (inhibitor, single point). For O=c1c2ccccc2[se]n1-c1ccccc1 [PC15] the result was Potency 15.85 µM (inhibitor, single point).

With O=c1c2ccccc2[se]n1-c1ccccc1 [N140] the assay gave Potency 17.78 µM (inhibitor, single point). O=c1c2ccccc2[se]n1-c1ccccc1 [CP237] read Potency 17.78 µM (inhibitor, single point). With O=c1c2ccccc2[se]n1-c1ccccc1 [PAD] the assay gave Potency 17.78 µM (inhibitor, single point). O=c1c2ccccc2[se]n1-c1ccccc1 [ATS189] gave Potency 17.78 µM (inhibitor, single point). For O=c1c2ccccc2[se]n1-c1ccccc1 [CP185] the result was Potency 17.78 µM (inhibitor, single point). With O=c1c2ccccc2[se]n1-c1ccccc1 [P93_24] the assay gave Potency 17.78 µM (inhibitor, single point). O=c1c2ccccc2[se]n1-c1ccccc1 [CP194] read Potency 21.33 µM (inhibitor, partial curve, poor fit).

O=c1c2ccccc2[se]n1-c1ccccc1 [ICS] gave Potency 17.78 µM (inhibitor, single point). For O=c1c2ccccc2[se]n1-c1ccccc1 [CP238] the result was Potency 14.13 µM (inhibitor, single point). O=c1c2ccccc2[se]n1-c1ccccc1 [ECU] read Potency 17.78 µM (inhibitor, single point). O=c1c2ccccc2[se]n1-c1ccccc1 [CP191] read Potency 10 µM (inhibitor, single point). Result for O=c1c2ccccc2[se]n1-c1ccccc1 [AS120] was Potency 17.78 µM (inhibitor, single point). Result for O=c1c2ccccc2[se]n1-c1ccccc1 [DIV14] was Potency 12 µM (inhibitor, single point). With O=c1c2ccccc2[se]n1-c1ccccc1 [Dd2] the assay gave Potency 15.85 µM (inhibitor, partial curve, poor fit).

For O=c1c2ccccc2[se]n1-c1ccccc1 [GB4] the result was Potency 19.01 µM (inhibitor, single point). O=c1c2ccccc2[se]n1-c1ccccc1 [P94_40] gave Potency 17.78 µM (inhibitor, single point).

Some entries from above, unchanged:

{"smiles": "O=c1c2ccccc2[se]n1-c1ccccc1", "tested on / at": "ATS189", "Potency (µM)": "17.78", "curve as filed": "inhibitor, single point"}
{"smiles": "O=c1c2ccccc2[se]n1-c1ccccc1", "tested on / at": "CP211", "Potency (µM)": "16.94", "curve as filed": "inhibitor, single point"}
{"smiles": "O=c1c2ccccc2[se]n1-c1ccccc1", "tested on / at": "CP238", "Potency (µM)": "14.13", "curve as filed": "inhibitor, single point"}